Laboratory results reported in patent US12241090B2, “Methods and systems for converting precursor cells into gastric tissues through directed differentiation” (CHILDREN'S HOSPITAL MEDICAL CENTER, priority 2014, dated 2025).
At least one structure is not confirmed: it was looked up by name or label, or the drawing left a doubt.

Columns and labels:
[1] = tested on: posterior foregut spheroids; assay: Three-dimensional culture of posterior foregut spheroids with RA, qPCR of organ lineage markers; type: cell-based, human; details: RA for 72 hours (days 6-9)
Protocol: Following DE induction, cells were treated for three days with growth factors/antagonists in RPMI 1640 with 2.0% dFBS. […] CHIR99021 is a small molecule that stimulates the Wnt signaling pathway. RA (2 μM; Sigma Aldrich) is added on the final day. Three-dimensional growth and antral specification. Posterior foregut spheroids were embedded in Matrigel (BD Biosciences) as previously described^10, 12 and subsequently grown in Advanced DMEM/F12 (Invitrogen) supplemented with N2 (Invitrogen), B27 (Invitrogen), L-glutamine, 10 μM HEPES, penicillin/streptomycin, and EGF (100 ng ml^−1; R&D Systems). For antral specification, RA and noggin were added for the first three days of three-dimensional growth. For endocrine cell specification, the EGF concentration is lowered to 10 ng ml^−1 at day 30.
The spheroids were transferred to a three-dimensional in vitro culture system as previously described5, 10, 12. Briefly, spheroids were collected, resuspended in 50 μl Matrigel (BD Biosciences), and plated in a three-dimensional droplet. After Matrigel was allowed to solidify for 10-15 minutes in a tissue culture incubator, spheroids were overlaid with gut media: Advanced DMEM/F12 with N2 (Invitrogen), B27 (Invitrogen), L-glutamine, 10 μM HEPES, penicillin/streptomycin, and EGF (100 ng ml^−1; R&D Systems). For the first three days, RA and Noggin were added to the gut media. […]

[2] = tested on: foregut spheroids / foregut monolayer cultures; assay: Posteriorization of foregut spheroids by 24-hour RA exposure, qPCR and brightfield
[3] = tested on: hGOs from dox-inducible NEUROG3-overexpressing hESC line; assay: Dox-inducible NEUROG3 hGOs in high EGF, endocrine marker expression; type: cell-based, human; details: doxycycline 1 μg mL−1 for 24 hours at day 30, high EGF (100 ng mL−1), analyzed at day 34

Structure (SMILES) | expression of the pancreas-specific marker PTF1α [1] | posterior foregut markers HNF1β and HNF6, qPCR ([2]; 24-hour exposure to RA on third day of patterning) | number of spheroids produced from foregut monolayer cultures ([2]; RA for 24 hours on third day of patterning) | endocrine markers CHGA, GASTRIN, GHRELIN and SOMATOSTATIN [3]
CC1=C(/C=C/C(C)=C/C=C/C(C)=C/C(=O)O)C(C)(C)CCC1 [RA, retinoic acid] | not induced | robustly induced | increases | –
C[C@H]1c2cccc(O)c2C(=O)C2=C(O)[C@]3(O)C(=O)C(C(N)=O)=C(O)[C@@H](N(C)C)[C@@H]3[C@@H](O)[C@@H]21 [doxycycline] | – | – | – | robust activation
